The supplement of paper PMC10849652
Some of the results follow.

The chains behind the UniProt entries cited, without tags or fusion partners. Where a name states a change or a piece, a line headed by the entry shows the natural chain unless it says otherwise.
UniProt Q9Y4C4: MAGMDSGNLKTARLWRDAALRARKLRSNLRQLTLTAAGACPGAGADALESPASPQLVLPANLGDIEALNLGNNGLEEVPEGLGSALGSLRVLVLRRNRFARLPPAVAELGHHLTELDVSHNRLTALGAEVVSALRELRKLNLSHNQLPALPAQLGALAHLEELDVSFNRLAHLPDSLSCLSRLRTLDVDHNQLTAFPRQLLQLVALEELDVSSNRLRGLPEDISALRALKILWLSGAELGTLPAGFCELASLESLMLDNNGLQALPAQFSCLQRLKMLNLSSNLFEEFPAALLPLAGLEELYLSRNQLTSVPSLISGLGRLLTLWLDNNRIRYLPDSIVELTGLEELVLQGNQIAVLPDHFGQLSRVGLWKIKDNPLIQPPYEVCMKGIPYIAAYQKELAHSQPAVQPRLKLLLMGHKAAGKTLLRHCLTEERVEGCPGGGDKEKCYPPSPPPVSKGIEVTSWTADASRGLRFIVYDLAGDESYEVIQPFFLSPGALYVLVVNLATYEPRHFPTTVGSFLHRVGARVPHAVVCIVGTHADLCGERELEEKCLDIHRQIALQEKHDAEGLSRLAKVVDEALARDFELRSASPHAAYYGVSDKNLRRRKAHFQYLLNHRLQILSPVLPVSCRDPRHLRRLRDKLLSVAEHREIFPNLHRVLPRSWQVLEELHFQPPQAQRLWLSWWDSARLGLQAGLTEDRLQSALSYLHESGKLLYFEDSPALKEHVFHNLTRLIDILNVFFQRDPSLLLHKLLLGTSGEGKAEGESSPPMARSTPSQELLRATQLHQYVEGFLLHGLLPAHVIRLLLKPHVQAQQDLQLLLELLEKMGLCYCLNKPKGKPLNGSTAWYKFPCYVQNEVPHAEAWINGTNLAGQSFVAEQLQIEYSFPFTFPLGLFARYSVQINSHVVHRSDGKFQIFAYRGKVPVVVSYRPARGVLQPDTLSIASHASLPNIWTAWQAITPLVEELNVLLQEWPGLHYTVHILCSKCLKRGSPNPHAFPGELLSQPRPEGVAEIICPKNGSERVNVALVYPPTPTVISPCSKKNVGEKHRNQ
UniProt A0JLT2: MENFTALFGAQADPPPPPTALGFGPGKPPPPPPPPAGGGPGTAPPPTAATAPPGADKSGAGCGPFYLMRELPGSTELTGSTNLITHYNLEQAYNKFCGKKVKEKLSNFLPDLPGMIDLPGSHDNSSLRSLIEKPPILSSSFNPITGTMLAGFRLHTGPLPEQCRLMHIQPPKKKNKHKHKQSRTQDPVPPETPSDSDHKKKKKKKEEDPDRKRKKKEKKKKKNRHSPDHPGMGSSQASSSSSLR
UniProt Q8IVS2: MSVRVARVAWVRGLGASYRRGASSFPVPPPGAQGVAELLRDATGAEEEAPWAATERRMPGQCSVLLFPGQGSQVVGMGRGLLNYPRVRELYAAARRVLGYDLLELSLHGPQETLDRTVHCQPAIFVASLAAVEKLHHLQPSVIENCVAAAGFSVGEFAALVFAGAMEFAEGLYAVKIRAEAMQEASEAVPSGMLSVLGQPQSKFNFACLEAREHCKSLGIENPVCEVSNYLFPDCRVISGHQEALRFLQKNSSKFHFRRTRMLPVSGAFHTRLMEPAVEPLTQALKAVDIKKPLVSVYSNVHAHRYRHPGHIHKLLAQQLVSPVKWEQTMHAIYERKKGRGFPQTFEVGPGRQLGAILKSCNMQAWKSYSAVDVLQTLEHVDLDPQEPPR
UniProt Q9BTE3: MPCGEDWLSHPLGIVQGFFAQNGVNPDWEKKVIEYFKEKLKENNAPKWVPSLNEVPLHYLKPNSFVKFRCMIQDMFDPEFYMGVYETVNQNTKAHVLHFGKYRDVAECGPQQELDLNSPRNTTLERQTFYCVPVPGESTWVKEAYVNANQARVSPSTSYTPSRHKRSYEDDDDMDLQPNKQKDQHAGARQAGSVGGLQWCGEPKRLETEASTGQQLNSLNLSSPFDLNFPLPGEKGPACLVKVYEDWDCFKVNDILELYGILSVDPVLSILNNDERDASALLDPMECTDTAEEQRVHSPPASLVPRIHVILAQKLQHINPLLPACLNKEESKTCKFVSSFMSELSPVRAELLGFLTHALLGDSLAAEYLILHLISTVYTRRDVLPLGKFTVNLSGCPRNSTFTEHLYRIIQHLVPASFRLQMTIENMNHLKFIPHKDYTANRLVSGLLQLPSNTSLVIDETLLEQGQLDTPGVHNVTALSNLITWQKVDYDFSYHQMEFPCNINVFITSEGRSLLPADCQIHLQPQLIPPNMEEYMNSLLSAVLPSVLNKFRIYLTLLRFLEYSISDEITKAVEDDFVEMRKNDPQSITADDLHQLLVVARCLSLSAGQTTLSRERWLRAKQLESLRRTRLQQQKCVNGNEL
UniProt Q6ZN04: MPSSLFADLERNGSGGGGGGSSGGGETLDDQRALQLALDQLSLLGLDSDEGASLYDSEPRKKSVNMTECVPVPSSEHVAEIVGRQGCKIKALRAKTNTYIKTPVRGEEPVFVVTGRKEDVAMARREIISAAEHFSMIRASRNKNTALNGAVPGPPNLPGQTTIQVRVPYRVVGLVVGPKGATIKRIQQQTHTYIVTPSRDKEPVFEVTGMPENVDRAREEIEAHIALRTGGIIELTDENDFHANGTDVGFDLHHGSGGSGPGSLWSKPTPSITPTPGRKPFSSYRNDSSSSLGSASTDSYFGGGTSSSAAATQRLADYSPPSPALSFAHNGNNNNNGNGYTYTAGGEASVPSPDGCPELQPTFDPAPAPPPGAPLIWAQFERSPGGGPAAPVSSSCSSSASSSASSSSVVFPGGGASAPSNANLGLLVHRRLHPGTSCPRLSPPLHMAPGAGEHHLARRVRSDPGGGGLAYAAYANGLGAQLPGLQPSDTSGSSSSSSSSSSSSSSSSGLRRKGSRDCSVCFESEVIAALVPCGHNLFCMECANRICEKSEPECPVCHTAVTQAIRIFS
UniProt Q9NR56: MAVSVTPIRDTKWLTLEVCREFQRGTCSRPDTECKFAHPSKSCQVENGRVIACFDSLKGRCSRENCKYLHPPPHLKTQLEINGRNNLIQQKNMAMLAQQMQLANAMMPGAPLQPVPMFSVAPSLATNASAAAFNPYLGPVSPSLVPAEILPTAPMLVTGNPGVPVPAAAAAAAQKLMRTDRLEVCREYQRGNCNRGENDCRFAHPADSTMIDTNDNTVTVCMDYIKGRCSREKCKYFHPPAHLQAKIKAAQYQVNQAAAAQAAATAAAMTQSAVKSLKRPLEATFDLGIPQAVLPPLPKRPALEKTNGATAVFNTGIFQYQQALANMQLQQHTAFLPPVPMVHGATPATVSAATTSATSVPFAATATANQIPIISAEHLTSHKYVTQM
UniProt Q9Y6X3: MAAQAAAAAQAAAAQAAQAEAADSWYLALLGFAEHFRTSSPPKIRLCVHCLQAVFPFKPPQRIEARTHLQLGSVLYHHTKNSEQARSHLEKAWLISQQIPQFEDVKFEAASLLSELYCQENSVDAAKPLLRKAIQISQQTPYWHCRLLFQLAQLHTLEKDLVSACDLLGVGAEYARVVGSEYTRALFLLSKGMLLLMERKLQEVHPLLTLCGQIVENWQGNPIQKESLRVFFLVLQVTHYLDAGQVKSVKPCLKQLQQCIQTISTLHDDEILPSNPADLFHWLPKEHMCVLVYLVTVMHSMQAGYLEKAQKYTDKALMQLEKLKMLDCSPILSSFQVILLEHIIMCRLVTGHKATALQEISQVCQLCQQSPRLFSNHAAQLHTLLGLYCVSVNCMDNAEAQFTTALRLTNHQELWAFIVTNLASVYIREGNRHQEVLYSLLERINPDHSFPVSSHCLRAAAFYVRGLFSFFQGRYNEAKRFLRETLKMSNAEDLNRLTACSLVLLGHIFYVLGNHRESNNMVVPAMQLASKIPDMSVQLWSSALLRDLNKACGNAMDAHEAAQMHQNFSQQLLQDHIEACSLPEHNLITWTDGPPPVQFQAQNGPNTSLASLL
UniProt Q02078: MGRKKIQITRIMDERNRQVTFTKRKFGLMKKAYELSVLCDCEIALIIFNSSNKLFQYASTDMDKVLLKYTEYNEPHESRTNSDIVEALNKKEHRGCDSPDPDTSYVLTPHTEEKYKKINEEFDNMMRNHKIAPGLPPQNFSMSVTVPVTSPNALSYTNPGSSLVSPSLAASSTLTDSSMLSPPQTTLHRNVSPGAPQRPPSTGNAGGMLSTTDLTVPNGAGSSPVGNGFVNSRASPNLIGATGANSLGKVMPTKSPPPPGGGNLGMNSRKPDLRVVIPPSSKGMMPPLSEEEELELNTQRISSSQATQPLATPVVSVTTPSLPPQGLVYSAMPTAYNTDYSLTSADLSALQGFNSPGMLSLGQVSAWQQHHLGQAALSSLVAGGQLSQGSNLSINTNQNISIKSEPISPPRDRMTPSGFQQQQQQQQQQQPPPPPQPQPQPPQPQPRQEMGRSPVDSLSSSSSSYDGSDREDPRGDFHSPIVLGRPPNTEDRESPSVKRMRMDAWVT
UniProt Q8TCB7: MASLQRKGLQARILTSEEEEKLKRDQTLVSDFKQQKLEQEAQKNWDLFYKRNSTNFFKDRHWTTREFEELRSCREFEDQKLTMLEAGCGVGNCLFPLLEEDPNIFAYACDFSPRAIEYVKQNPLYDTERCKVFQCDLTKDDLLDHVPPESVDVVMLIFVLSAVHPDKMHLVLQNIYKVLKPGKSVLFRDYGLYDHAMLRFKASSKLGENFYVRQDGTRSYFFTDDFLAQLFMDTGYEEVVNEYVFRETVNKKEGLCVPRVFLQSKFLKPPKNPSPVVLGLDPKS
UniProt Q00987, whole entry, looked up: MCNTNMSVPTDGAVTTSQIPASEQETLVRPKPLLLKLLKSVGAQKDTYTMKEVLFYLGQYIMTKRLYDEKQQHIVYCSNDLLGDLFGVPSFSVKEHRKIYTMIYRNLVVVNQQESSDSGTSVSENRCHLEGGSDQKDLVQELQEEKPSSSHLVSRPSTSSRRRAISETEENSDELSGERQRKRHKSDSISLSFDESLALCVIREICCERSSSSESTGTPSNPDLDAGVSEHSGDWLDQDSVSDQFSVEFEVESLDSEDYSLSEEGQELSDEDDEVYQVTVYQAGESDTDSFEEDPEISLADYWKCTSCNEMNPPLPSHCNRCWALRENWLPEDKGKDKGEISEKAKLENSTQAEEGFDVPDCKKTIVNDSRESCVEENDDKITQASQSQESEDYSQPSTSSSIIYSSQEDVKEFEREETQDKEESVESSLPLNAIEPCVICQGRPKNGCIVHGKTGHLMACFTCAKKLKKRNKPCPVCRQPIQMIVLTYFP
UniProt Q6ZSS7: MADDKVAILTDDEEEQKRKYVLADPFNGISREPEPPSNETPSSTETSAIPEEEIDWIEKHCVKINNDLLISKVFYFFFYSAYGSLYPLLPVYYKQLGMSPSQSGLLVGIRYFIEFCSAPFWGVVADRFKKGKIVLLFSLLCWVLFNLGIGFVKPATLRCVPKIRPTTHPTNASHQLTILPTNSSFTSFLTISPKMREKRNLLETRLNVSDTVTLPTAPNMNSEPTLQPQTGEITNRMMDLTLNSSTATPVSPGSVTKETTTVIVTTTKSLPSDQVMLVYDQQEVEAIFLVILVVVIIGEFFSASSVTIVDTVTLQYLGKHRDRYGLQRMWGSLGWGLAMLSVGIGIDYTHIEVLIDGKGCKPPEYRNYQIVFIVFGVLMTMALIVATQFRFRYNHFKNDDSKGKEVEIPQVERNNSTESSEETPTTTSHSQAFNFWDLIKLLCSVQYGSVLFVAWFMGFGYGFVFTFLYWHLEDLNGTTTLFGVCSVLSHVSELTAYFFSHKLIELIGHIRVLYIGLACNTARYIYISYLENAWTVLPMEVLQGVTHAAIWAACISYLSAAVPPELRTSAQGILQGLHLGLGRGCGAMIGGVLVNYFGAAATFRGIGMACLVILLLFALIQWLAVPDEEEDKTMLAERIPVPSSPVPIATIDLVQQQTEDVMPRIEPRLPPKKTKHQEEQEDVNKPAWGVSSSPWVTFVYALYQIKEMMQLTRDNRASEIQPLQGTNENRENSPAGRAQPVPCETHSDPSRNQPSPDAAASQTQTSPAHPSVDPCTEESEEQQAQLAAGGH
UniProt Q9H204: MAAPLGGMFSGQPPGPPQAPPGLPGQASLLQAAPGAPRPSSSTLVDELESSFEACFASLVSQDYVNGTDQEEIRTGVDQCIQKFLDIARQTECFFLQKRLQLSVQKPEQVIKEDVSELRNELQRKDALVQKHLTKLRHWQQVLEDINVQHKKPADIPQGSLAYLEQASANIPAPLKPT
UniProt A6NJ78: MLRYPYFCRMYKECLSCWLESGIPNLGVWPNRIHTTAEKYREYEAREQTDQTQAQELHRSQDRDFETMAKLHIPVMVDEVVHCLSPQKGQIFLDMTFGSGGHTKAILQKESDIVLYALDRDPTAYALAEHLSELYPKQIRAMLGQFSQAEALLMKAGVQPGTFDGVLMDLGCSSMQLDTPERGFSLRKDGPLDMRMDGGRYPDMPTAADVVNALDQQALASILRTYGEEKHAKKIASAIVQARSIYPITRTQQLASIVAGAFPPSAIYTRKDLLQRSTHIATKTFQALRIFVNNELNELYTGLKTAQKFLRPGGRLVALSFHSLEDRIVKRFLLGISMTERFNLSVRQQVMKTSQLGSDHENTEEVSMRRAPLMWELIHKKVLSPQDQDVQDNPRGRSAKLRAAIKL

Legend:
Test in all cases: log2 fold change, soluble protein after heating vs DMSO (PISA); higher = thermal stabilisation; K562 lysate, 10 uM; active = over 0.2 and 3.5 SD of the protein, either way, in both replicates (recomputed)
[1] = compound: CS(=O)(=O)CCNCc1ccc(-c2ccc3ncnc(Nc4ccc(OCc5cccc(F)c5)c(Cl)c4)c3c2)o1 [lapatinib]
How it was run: (§1)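 Pellets of K562 cells were dounce-homogenised in PBS pH 7.4 with 1 mM MgCl2, and the crude extract was held at 1 mg/mL protein for a 30 min treatment with 10 μM compound. Aliquots were heated for 3 min over 48°C-58°C and pooled before NP-40 was added to 0.5% at 4°C. The supernatant from 21,000xg for 90 min was quantified by TMTpro 16plex LC-MS/MS with channel sums equalised. Values are reported from duplicates as log-two fold change in thermal stability relative to solvent controls.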

[2] = compound: CS(=O)(=O)N1CCN(Cc2cc3nc(-c4cccc5[nH]ncc45)nc(N4CCOCC4)c3s2)CC1 [pictilisib]
How it was run: as §1

[3] = compound: C[C@@H](Oc1cc(-c2cnn(C3CCNCC3)c2)cnc1N)c1c(Cl)ccc(F)c1Cl [crizotinib]
How it was run: as §1

[4] = compound: C[C@H](C1=CC=C(C=C1)C(=O)NC2=C3C=CNC3=NC=C2)N
How it was run: as §1

[5] = compound: C[C@H](Nc1ncnc2nc[nH]c12)c1cc2cccc(Cl)c2c(=O)n1-c1ccccc1 [duvelisib]
How it was run: as §1

[6] = compound: Cc1cc(Nc2cc(CN3CCOCC3)c3nc(C)c(Cc4ccc(Cl)cc4F)n3n2)n[nH]1 [gandotinib]
How it was run: as §1

[7] = compound: Cc1cc(Nc2cc(N3CCN(C)CC3)nc(Sc3ccc(NC(=O)C4CC4)cc3)n2)n[nH]1 [tozasertib]
How it was run: as §1

[8] = compound: Cc1ccc(-n2nc(C(C)(C)C)cc2NC(=O)Nc2ccc(OCCN3CCOCC3)c3ccccc23)cc1 [doramapimod]
How it was run: as §1

[9] = compound: Cc1ccc(NC(=O)c2ccc(CN3CC[C@H](N(C)C)C3)c(C(F)(F)F)c2)cc1Nc1nccc(-c2cncnc2)n1 [bafetinib]
How it was run: as §1

[10] = compound: Cc1cccc(CC(=O)N2CCc3c2ccc(-c2cn(C)c4ncnc(N)c24)c3F)n1
How it was run: as §1

[11] = compound: Cc1nc(Nc2ncc(C(=O)Nc3c(C)cccc3Cl)s2)cc(N2CCN(CCO)CC2)n1 [dasatinib]
How it was run: as §1

[12] = compound: Cn1cc(-c2ccc3c(c2)CCN3C(=O)Cc2cccc(C(F)(F)F)c2)c2c(N)ncnc21
How it was run: as §1

[13] = compound: Cn1cc(CNCC2CCN(c3ncc(C(=O)NO)cn3)CC2)c2ccccc21 [quisinostat]
How it was run: as §1

[14] = compound: NC(=O)Nc1cc(-c2cccc(F)c2)sc1C(=O)N[C@H]1CCCNC1
How it was run: as §1

[15] = compound: NC(=O)c1cnc(N[C@@H]2CCCC[C@@H]2N)nc1Nc1cccc(-n2nccn2)c1
How it was run: as §1

[16] = compound: NC1(c2ccc(-c3nc4ccn5c(=O)[nH]nc5c4cc3-c3ccccc3)cc2)CCC1
How it was run: as §1

[17] = compound: Cc1cn(-c2cc(NC(=O)c3ccc(C)c(Nc4nccc(-c5cccnc5)n4)c3)cc(C(F)(F)F)c2)cn1 [nilotinib]
How it was run: as §1

[18] = compound: Cc1nc(Nc2n[nH]c3c2CN(C(=O)N[C@H](CN(C)C)c2ccccc2)C3(C)C)c2sccc2n1
How it was run: as §1

[19] = compound: Cc1ncc(-c2ccnc(Nc3ccc(S(C)(=O)=O)cc3)n2)n1C(C)C
How it was run: as §1

[20] = compound: Cn1cncc1[C@@](N)(c1ccc(Cl)cc1)c1ccc2c(c1)c(-c1cccc(Cl)c1)cc(=O)n2C [tipifarnib]
How it was run: as §1

Measured: log2 fold change

MED6 (UniProt O75586)
inactive: [1] 0.016 | [2] -0.036 | [3] -0.053 | [4] -0.105 | [5] 0.034 | [6] 0.057 | [7] -0.003 | [8] 0.141 | [9] -0.033 | [10] 0.01 | [11] -0.112 | [12] -0.119 | [13] -0.213 | [14] -0.085 | [15] 0.051

MFHAS1 (UniProt Q9Y4C4)
inactive: [1] -0.138 | [2] 0.16 | [3] -0.114 | [5] 0 | [8] 0.047 | [9] -0.391 | [11] -0.135 | [12] -0.061 | [13] -0.121 | [14] 0.11 | [15] -0.344 | [16] -0.026

MBOAT1 (UniProt Q6ZNC8)
inactive: [1] -0.502 | [2] 0.033 | [3] -0.069 | [7] -0.014 | [8] -0.099 | [9] 0.123 | [17] -0.024 | [18] 0.059 | [19] 0.19 | [13] -0.035 | [20] -0.051 | [14] 0.088 | [15] 0.195 | [16] 0.051

Fetched one by one from the list above, 2 records:
MFHAS1 (UniProt Q9Y4C4)
inactive: [1] -0.138 | [2] 0.16 | [3] -0.114 | [5] 0 | [8] 0.047 | [9] -0.391 | [11] -0.135 | [12] -0.061 | [13] -0.121 | [14] 0.11 | [15] -0.344 | [16] -0.026

MBOAT1 (UniProt Q6ZNC8)
inactive: [1] -0.502 | [2] 0.033 | [3] -0.069 | [7] -0.014 | [8] -0.099 | [9] 0.123 | [17] -0.024 | [18] 0.059 | [19] 0.19 | [13] -0.035 | [20] -0.051 | [14] 0.088 | [15] 0.195 | [16] 0.051

Following part.

MCCC2 (UniProt Q9HCC0)
inactive: [1] 0 | [2] -0.03 | [3] 0.02 | [4] -0.011 | [5] 0.006 | [6] 0.019 | [7] -0.013 | [8] -0.023 | [9] 0.024 | [10] -0.016 | [17] 0.022 | [18] -0.011 | [11] 0.088 | [19] -0.011 | [12] -0.011 | [13] -0.011 | [20] 0.009 | [14] -0.003 | [15] -0.03 | [16] -0.027

METTL25 (UniProt Q8N6Q8)
inactive: [1] 0.058 | [2] -0.023 | [5] -0.002 | [7] 0.057 | [9] 0.057 | [11] 0.078 | [12] 0.036 | [15] 0.196

MED19 (UniProt A0JLT2)
inactive: [1] 0.026 | [2] -0.153 | [3] -0.009 | [4] 0.019 | [5] -0.041 | [6] -0.039 | [8] 0.02 | [9] -0.549 | [10] -0.127 | [11] 0.066 | [12] 0.027 | [13] -0.035 | [14] -0.009 | [15] -0.005

MCAT (UniProt Q8IVS2)
inactive: [1] -0.077 | [2] -0.053 | [3] 0.011 | [4] -0.063 | [5] 0.018 | [6] 0.07 | [7] 0.001 | [8] 0.007 | [9] -0.012 | [10] -0.01 | [17] 0.051 | [18] 0.005 | [11] 0.056 | [19] -0.037 | [12] 0.054 | [13] -0.008 | [20] 0.02 | [14] -0.021 | [15] -0.001 | [16] -0.004

MCMBP isoform 2 (UniProt Q9BTE3)
inactive: [1] 0.154 | [2] -0.179 | [3] 0.14 | [5] -0.03 | [7] 0.013 | [8] -0.092 | [9] 0.235 | [17] 0.152 | [18] -0.039 | [11] 0.099 | [19] -0.144 | [12] -0.099 | [13] -0.076 | [20] 0.066 | [14] -0.041 | [15] 0.082 | [16] -0.118

MFN1 (UniProt Q8IWA4)
inactive: [1] -0.113 | [2] -0.036 | [3] -0.07 | [4] -0.212 | [5] 0.013 | [6] 0.009 | [7] -0.068 | [8] 0.024 | [9] -0.07 | [10] 0.037 | [17] 0.014 | [18] 0.071 | [11] -0.018 | [19] 0.1 | [12] -0.018 | [13] -0.184 | [20] -0.012 | [14] 0.047 | [15] 0.072 | [16] -0.009

MEX3B (UniProt Q6ZN04)
inactive: [1] 0.108 | [2] 0.097 | [4] -0.278 | [5] -0.059 | [6] 0.215 | [7] 0.18 | [9] -0.039 | [10] 0.069 | [17] -0.117 | [18] -0.152 | [11] 0.052 | [19] 0.119 | [12] 0.051 | [20] -0.042 | [15] -0.013 | [16] 0.009

MFSD11 (UniProt O43934)
inactive: [1] 0.038 | [2] 0.01 | [4] -0.158 | [6] 0.065 | [9] -0.047 | [10] 0.001 | [15] 0.021 | [16] -0.063

MBNL1 isoform 5 (UniProt Q9NR56)
inactive: [1] 0.042 | [2] -0.046 | [3] 0.062 | [4] -0.005 | [5] -0.02 | [6] -0.02 | [7] 0.025 | [8] 0.023 | [9] -0.015 | [10] -0.02 | [17] 0.012 | [18] -0.004 | [11] -0.077 | [19] -0.067 | [12] 0.004 | [13] 0.034 | [20] -0.061 | [14] -0.044 | [15] 0.02 | [16] 0.074

MAU2 (UniProt Q9Y6X3)
inactive: [1] -0.018 | [2] -0.025 | [3] -0.033 | [4] 0.055 | [6] -0.068 | [7] -0.003 | [8] 0.062 | [9] 0.001 | [10] -0.056 | [13] -0.057 | [14] 0.036 | [15] 0.018 | [16] 0.113

MEF2A isoform 2 (UniProt Q02078)
inactive: [1] 0.077 | [2] -0.01 | [3] 0.017 | [4] 0.001 | [6] 0.027 | [8] 0.143 | [9] -0.033 | [10] 0.08 | [17] -0.099 | [18] 0.124 | [19] -0.021 | [13] -0.086 | [20] -0.042 | [14] -0.052 | [15] -0.005 | [16] -0.008

METTL6 (UniProt Q8TCB7)
inactive: [1] 0.011 | [2] 0.152 | [3] -0.082 | [4] 0.015 | [5] -0.078 | [6] -0.045 | [7] 0.075 | [8] 0.026 | [9] -0.043 | [10] 0.057 | [11] 0.006 | [12] -0.313 | [13] -0.135 | [14] -0.031 | [15] -0.004

METTL5 (UniProt H0YFV5)
inactive: [1] -0.081 | [2] -0.021 | [3] -0.107 | [8] -0.021 | [9] -0.006 | [13] -0.283 | [14] 0.134 | [15] 0.088 | [16] -0.04

MDM2 isoform 11 (UniProt Q00987)
inactive: [2] -0.003 | [3] 0.014 | [4] -0.004 | [6] 0.044 | [8] 0.009 | [9] 0.054 | [10] -0.158 | [13] -0.2 | [14] -0.077 | [16] -0.195

MFSD6 (UniProt Q6ZSS7)
inactive: [2] -0.067 | [4] -0.235 | [5] 0.14 | [6] 0.032 | [7] 0.2 | [9] 0.031 | [10] -0.263 | [11] -0.012 | [12] 0.239 | [16] -0.18

MELK (UniProt Q14680)
inactive: [1] -0.031 | [3] 0.044 | [4] 0.01 | [5] -0.028 | [6] -0.031 | [7] -0.209 | [8] 0.208 | [10] 0.039 | [17] 0.142 | [18] 0.034 | [11] 0 | [19] -0.045 | [12] 0.043 | [13] -0.209 | [20] -0.117 | [14] -0.156 | [15] -0.053 | [16] -0.123

MFAP4 isoform 2 (UniProt P55083)
inactive: [7] 0.066

MED28 (UniProt Q9H204)
active: [6] 0.394
inactive: [1] 0.132 | [3] 0.021 | [4] -0.039 | [5] -0.034 | [8] -0.012 | [10] -0.038 | [17] 0.053 | [18] 0.053 | [11] -0.004 | [19] 0.053 | [12] -0.006 | [13] -0.007 | [20] 0.015 | [14] -0.013 | [15] -0.005 | [16] -0.014

MATK isoform 2 (UniProt P42679)
inactive: [1] 0.025 | [4] -0.224 | [6] 0.056 | [10] 0.07 | [17] -0.03 | [18] -0.086 | [19] -0.036 | [20] 0.045 | [15] -0.003

METTL15 (UniProt A6NJ78)
inactive: [3] -0.007 | [8] -0.088 | [17] 0.09 | [18] -0.255 | [19] -0.19 | [13] -0.08 | [20] -0.069 | [14] -0.009
